Here are results for one sequence from paper PMC3765907.

Protein sequences, listed by entry. Tags and fused reporters are not part of them. Lines headed by an entry give the natural chain unless they say otherwise; changes in a name come on top.
UniProt O60260: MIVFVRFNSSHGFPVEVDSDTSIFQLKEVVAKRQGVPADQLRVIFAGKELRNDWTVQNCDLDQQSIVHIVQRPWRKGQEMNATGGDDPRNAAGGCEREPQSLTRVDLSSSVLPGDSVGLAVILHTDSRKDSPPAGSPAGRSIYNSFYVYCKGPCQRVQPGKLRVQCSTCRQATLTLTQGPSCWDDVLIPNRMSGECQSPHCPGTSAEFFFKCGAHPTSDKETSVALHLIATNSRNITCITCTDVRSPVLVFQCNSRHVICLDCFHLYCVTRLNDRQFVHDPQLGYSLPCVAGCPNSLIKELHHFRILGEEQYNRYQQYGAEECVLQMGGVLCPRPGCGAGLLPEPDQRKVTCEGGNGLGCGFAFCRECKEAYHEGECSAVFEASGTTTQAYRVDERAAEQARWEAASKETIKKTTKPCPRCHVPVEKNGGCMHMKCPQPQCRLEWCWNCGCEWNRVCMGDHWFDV

For at least one entry, the source does not settle the construct or the ends of the probe. Whether high values mean tight binding is not given here for every scale.

This series concerns the target S-nitrosylated parkin (SNO-parkin, GST-tagged) (UniProt O60260). The experiment in a line: EMSA. The following applies: parkin pre-incubated 10 min with 200 uM fresh SNOC, p<0.01, n=4, text does not say whether 47% is remaining or lost; 1x binding buffer (Panomics), room temperature, 20 min; 0.1 nM biotin probe, 1 uM parkin (100 nM-1 uM titration); 6% PAGE in 0.5x TBE pH 8.3; salt not stated; recombinant protein; protein details: GST; label: 5' biotin.

Consider “GGCACCAGGTCGGCGAGAATCCTGACTCTGCACCCTCCTCCCCAACTCCATTTCCTTTGCTTCCTCCGGC (double strand) [Pp53 (human p53 promoter probe)]”, for which the binding signal (% relative to old SNOC) stood at 47.
